Values from PubChem BioAssay AID743454 (Peter MacCallum Cancer Centre, 2014).
Assay: 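Search for knock-downs that restore vorinostat killing in resistant colon cancer cells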 (primary screen). System: human HCT116-VR colon cancer cells, selected for vorinostat resistance. Knock-down reagent: siRNA pool against human genes, 40 nM siRNA pool. Time to read-out: vorinostat for 24 h, read-out about 72 h after transfection. Challenge: vorinostat at 2.5 µM final. Read-out: 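Two measures, CellTiter-Fluor viability and luminescent caspase 3/7 activity, each as fold change against same-plate mock wells, mean of duplicates, then screen-wide robust z-score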. Scale: viability robust z-score: higher = more viable cells than screen typical; caspase robust z-score: higher = more caspase 3/7 activity than screen typical. Active means: 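Hits are knock-downs in viability class RV1/RV2 or caspase class CA1/CA2, excluding ones that killed cells in the no-drug cell-count arm; hits then retested with single siRNAs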.
Here is a random part of about 18,000 reagents tested. Over the whole deposit, 450 (2.5%) were called active. 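Single biological run; no consistent viability z cut-off exists, so the class columns, not z-scores, define the calls.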 Unmarked entries are inactive. Reagents against one gene are numbered here.

| Gene | reagent | viability hit class | caspase hit class | viability robust z-score | caspase robust z-score |
| --- | --- | --- | --- | --- | --- |
| CEP95 (centrosomal protein 95) | 1 | no change | no change | -0.14 | 1.5 |
| LMNB1 (lamin B1) | 1 | no change | no change | -2.13 | -0.52 |
| TIMM21 (translocase of inner mitochondrial membrane 21) | 1 | no change | no change | 0.65 | -0.22 |
| RYBP (RING1 and YY1 binding protein) | 1 | no change | no change | 0.68 | 0.3 |
| SGTA | 1 | no change | no change | 0.36 | -0.1 |
| POLD1 (DNA polymerase delta 1, catalytic subunit) | 1 | no change | no change | -0.17 | 0.97 |
| TMEM215 (transmembrane protein 215) | 1 | no change | no change | 0.73 | 0.08 |
| ING5 (inhibitor of growth family member 5) | 1 | no change | no change | -0.46 | 0.06 |
| GPX3 (glutathione peroxidase 3) | 1 | no change | no change | -0.24 | -0.7 |
| OCIAD1 (OCIA domain containing 1) | 1 | no change | no change | 0.9 | -0.18 |
| RHOU (ras homolog family member U) | 1 | no change | no change | 1.79 | -0.18 |
| ANKRD46 (ankyrin repeat domain 46) | 1 | no change | no change | 0.63 | 1.06 |
| SHH (sonic hedgehog signaling molecule) | 1 | no change | no change | -0.82 | -1.17 |
| TSPAN31 (tetraspanin 31) | 1 | no change | no change | -0.38 | -0.34 |
| WDR75 (WD repeat domain 75) | 1 | no change | no change | -1.88 | -0.14 |
| UBD (ubiquitin like modifier D) | 1 | no change | no change | -1.09 | 1.98 |
| NUDT14 (nudix hydrolase 14) | 1 | no change | no change | -0.38 | 5.07 |
| OOSP2 (oocyte secreted protein 2) | 1 | no change | no change | 0.69 | 0.04 |
| IQGAP2 (IQ motif containing GTPase activating protein 2) | 1 | no change | no change | 0.18 | -0.51 |
| TRAPPC6A (trafficking protein particle complex subunit 6A) | 1 | no change | no change | -1.2 | 0.39 |
| PTAFR (platelet activating factor receptor) | 1 | no change | no change | -0.75 | -0.22 |
| STMN2 (stathmin 2) | 1 | no change | no change | 1.03 | -0.2 |
| EEIG2 (EEIG family member 2) | 1 | no change | no change | 1.48 | -0.05 |
| ARL14EP (ARF like GTPase 14 effector protein) | 1 | no change | no change | -0.22 | -0.52 |
| GPR78 (G protein-coupled receptor 78) | 1 | no change | no change | -0.11 | 0.72 |
| LDAF1 (lipid droplet assembly factor 1) | 1 | no change | no change | 0.14 | -0.43 |
| SLC6A7 | 1 | no change | no change | -0.66 | -1.02 |
| ZNF347 (zinc finger protein 347) | 1 | no change | no change | 1.79 | 0.12 |
| ETV2 (ETS variant transcription factor 2) | 1 | no change | no change | 1.34 | 0.62 |
| FTMT (ferritin mitochondrial) | 1 | no change | no change | -2.19 | -1.5 |
| NCOA1 (nuclear receptor coactivator 1) | 1 | no change | no change | 0.88 | -0.52 |
| SPACA7 (sperm acrosome associated 7) | 1 | no change | no change | 0.84 | -0.44 |
| MUC2 (mucin 2, oligomeric mucus/gel-forming) | 1 | no change | no change | -1.12 | -0.24 |
| C4orf51 (chromosome 4 open reading frame 51) | 1 | no change | no change | -0.27 | 0.2 |

A portion from the list above, for reference:
| Gene | reagent | viability hit class | caspase hit class | viability robust z-score | caspase robust z-score |
| --- | --- | --- | --- | --- | --- |
| RYBP (RING1 and YY1 binding protein) | 1 | no change | no change | 0.68 | 0.3 |
| SGTA | 1 | no change | no change | 0.36 | -0.1 |
| POLD1 (DNA polymerase delta 1, catalytic subunit) | 1 | no change | no change | -0.17 | 0.97 |
| TMEM215 (transmembrane protein 215) | 1 | no change | no change | 0.73 | 0.08 |
| ING5 (inhibitor of growth family member 5) | 1 | no change | no change | -0.46 | 0.06 |
| GPX3 (glutathione peroxidase 3) | 1 | no change | no change | -0.24 | -0.7 |
| OCIAD1 (OCIA domain containing 1) | 1 | no change | no change | 0.9 | -0.18 |
| RHOU (ras homolog family member U) | 1 | no change | no change | 1.79 | -0.18 |
| ANKRD46 (ankyrin repeat domain 46) | 1 | no change | no change | 0.63 | 1.06 |
| SHH (sonic hedgehog signaling molecule) | 1 | no change | no change | -0.82 | -1.17 |
| TSPAN31 (tetraspanin 31) | 1 | no change | no change | -0.38 | -0.34 |

More reagents follow:
| Gene | reagent | viability hit class | caspase hit class | viability robust z-score | caspase robust z-score |
| --- | --- | --- | --- | --- | --- |
| DRC1 (dynein regulatory complex subunit 1) | 1 | no change | no change | 0.44 | -0.12 |
| LIMS1 (LIM zinc finger domain containing 1) | 1 | no change | no change | 0.18 | -0.44 |
| ATP2B3 (ATPase plasma membrane Ca2+ transporting 3) | 1 | no change | no change | 0.68 | -0.2 |
| RBM14 (RNA binding motif protein 14) | 1 | no change | no change | 0.42 | 2.33 |
| SI (sucrase-isomaltase) | 1 | no change | no change | -1.31 | -1.02 |
| ASCC1 (activating signal cointegrator 1 complex subunit 1) | 1 | no change | no change | 0.62 | -1.2 |
| E2F7 (E2F transcription factor 7) | 1 | no change | no change | 0.64 | -0.42 |
| MRPL33 (mitochondrial ribosomal protein L33) | 1 | no change | no change | -1.41 | -0.96 |
| CLMN (calmin) | 1 | no change | no change | 0.99 | 0.08 |
| MVK (mevalonate kinase) | 1 | no change | no change | 1 | -0.94 |
| ICAM3 (intercellular adhesion molecule 3) | 1 | no change | no change | -1.7 | 2.21 |
| CENPS (centromere protein S) | 1 | no change | no change | 0.88 | 0.5 |
| RHOBTB1 (Rho related BTB domain containing 1) | 1 | no change | no change | 0.23 | -0.44 |
| PTPN20 (protein tyrosine phosphatase non-receptor type 20) | 1 | no change | no change | 0.64 | 0.28 |
| PTPN20 (protein tyrosine phosphatase non-receptor type 20) | 2 | no change | no change | 0.4 | -0.24 |
| ADPRHL1 (ADP-ribosylhydrolase like 1) | 1 | no change | no change | 1.46 | -0.31 |
| GAN (gigaxonin) | 1 | no change | no change | -0.48 | -0.48 |
| CITED1 (Cbp/p300 interacting transactivator with ED-rich tail 1) | 1 | no change | no change | -0.87 | 2.53 |
| SLC2A14 | 1 | no change | no change | 1.05 | 1.58 |
| LOC642678 (retired record) | 1 | no change | no change | 0.86 | -0.14 |
| JADE3 (jade family PHD finger 3) | 1 | no change | no change | -0.68 | 0.51 |
| CCDC6 (coiled-coil domain containing 6) | 1 | no change | no change | -0.52 | 0.08 |
| PUSL1 (pseudouridine synthase like 1) | 1 | no change | no change | -0.6 | -0.03 |
| DOT1L (DOT1 like histone lysine methyltransferase) | 1 | no change | no change | 0.72 | -0.06 |
| HTRA2 (HtrA serine peptidase 2) | 1 | no change | no change | 0.14 | -0.86 |
| PRKCD (protein kinase C delta) | 1 | no change | no change | -0.11 | -1.2 |
| LMX1A (LIM homeobox transcription factor 1 alpha) | 1 | no change | no change | 0.16 | 4.29 |
| GALNT8 (polypeptide N-acetylgalactosaminyltransferase 8) | 1 | no change | no change | -0.41 | 0.09 |
| SLC1A1 | 1 | no change | no change | 0.37 | -0.85 |
| OPCML (opioid binding protein/cell adhesion molecule like) | 1 | no change | no change | -0.36 | -0.49 |
| AFTPH (aftiphilin) | 1 | no change | no change | -0.72 | -0.68 |
| CYLD (CYLD lysine 63 deubiquitinase) | 1 | no change | no change | -0.08 | -0.48 |
| FAM110A (family with sequence similarity 110 member A) | 1 | no change | no change | -0.7 | -1.14 |
| LCN8 (lipocalin 8) | 1 | no change | no change | -1.46 | 1.25 |
| SPRR1A (small proline rich protein 1A) | 1 | no change | no change | 0.16 | 1.1 |
| KCNQ4 (potassium voltage-gated channel subfamily Q member 4) | 1 | no change | no change | -1.46 | -0.72 |
| SEPTIN14 (septin 14) | 1 | no change | no change | -0.96 | -0.98 |
| HDAC10 (histone deacetylase 10) | 1 | no change | no change | -0.56 | 0.96 |
| UPK1A (uroplakin 1A) | 1 | no change | no change | -0.06 | -0.88 |
